No constants are given. Whether binding was seen depends on the method and setting. In cells and extracts the contact can be indirect. Some binding calls cover weakened binding; strength is not graded here.
Tests used:
[1] = molecular target: NDRG1 (180-294aa)-His-Tag (UniProt Q92597); assay: co-IP; HEK 293T transfected with His-tagged NDRG1, its truncated mutants or vector; whole cell lysates precipitated with anti-His-Tag; blotted with anti-His-Tag and anti-PIM1 or anti-PTBP1
[2] = molecular target: NDRG1 (326-394aa)-His-Tag (UniProt Q92597); assay: as above
[3] = molecular target: NDRG1 (endogenous, HUVEC) (human (endogenous in HUVEC)) (UniProt Q92597); assay: co-IP; HUVEC lysate, endogenous proteins; precipitation with anti-PIM1 or anti-NDRG1, IgG as control; Protein A/G magnetic beads; western blot
[4] = molecular target: NDRG1 (endogenous, HUVEC) (human (endogenous in HUVEC)) (UniProt Q92597); assay: co-IP; nuclear extract of HUVEC treated with H2O2 (200 uM) and TGF-beta (50 ng/mL, 48 h); endogenous proteins; precipitation with anti-NDRG1 or anti-PTBP1, IgG as control

Chains of the proteins cited; added tags and fusions are not shown. Lines headed by an entry give the natural chain unless they say otherwise; changes in a name come on top. Residues count along the entry.
UniProt Q92597: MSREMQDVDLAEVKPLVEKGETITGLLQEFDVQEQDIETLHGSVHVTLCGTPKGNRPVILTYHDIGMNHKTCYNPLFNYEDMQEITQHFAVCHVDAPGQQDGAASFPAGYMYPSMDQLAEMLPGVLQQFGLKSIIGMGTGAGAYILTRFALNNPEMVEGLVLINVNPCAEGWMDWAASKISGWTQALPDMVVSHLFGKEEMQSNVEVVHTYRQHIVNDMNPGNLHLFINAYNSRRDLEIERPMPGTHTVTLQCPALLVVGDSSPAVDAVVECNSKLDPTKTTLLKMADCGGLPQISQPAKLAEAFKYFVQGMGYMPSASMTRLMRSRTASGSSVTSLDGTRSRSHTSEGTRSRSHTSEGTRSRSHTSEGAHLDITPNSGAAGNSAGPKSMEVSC
NDRG1 (180-294aa)-His-Tag: residues 180-294 of Q92597
NDRG1 (326-394aa)-His-Tag: residues 326-394 of Q92597
UniProt P26599: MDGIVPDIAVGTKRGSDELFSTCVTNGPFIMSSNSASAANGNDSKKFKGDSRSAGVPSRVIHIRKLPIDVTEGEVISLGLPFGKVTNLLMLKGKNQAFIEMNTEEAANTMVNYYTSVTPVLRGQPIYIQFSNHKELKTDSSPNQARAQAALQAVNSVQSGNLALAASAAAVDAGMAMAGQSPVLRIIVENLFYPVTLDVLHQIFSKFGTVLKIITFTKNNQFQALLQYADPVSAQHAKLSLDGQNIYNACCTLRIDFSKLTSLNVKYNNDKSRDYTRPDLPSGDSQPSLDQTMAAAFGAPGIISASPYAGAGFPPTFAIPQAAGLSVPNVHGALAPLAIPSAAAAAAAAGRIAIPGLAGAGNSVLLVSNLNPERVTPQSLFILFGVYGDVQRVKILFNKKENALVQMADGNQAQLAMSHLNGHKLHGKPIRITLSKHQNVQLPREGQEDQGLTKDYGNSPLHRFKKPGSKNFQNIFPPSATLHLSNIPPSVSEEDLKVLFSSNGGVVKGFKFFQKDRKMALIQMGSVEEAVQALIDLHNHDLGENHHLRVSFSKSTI
UniProt P11309: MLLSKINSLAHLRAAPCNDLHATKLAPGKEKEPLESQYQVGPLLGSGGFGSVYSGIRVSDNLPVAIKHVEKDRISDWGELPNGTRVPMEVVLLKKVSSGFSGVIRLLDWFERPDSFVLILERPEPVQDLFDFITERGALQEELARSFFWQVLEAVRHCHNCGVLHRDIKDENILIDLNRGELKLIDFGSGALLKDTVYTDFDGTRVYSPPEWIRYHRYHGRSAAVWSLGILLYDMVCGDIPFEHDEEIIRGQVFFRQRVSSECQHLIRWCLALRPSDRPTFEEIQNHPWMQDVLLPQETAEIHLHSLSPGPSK

Substance: PTBP1 (in HEK 293T whole cell lysate, detected with anti-PTBP1) (from UniProt P26599 1-557)
- binding [1]: binds
- binding [2]: binds

Substance: PIM1 (endogenous, HUVEC) (from UniProt P11309 1-313) (enzyme)
- binding [3]: binds

Substance: PTBP1 (endogenous, HUVEC) (from UniProt P26599 1-557)
- binding [4]: binds

Substance: PIM1 (in HEK 293T whole cell lysate, detected with anti-PIM1) (from UniProt P11309 1-313) (enzyme)
- binding [1]: binds
- binding [2]: binds
